PubChem BioAssay AID1347076 (National Center for Advancing Translational Sciences (NCATS), 2019)
Several values for one entry are separate records, joined by “and”; a condition that tells them apart may be missing. Identical values can stand only once. Out of some 400,000 compounds screened, about 13,000 (3.2%) were called active. The inconclusive results got no clear call from the source; some entries with a clear call stand among them for comparison. Calls follow the shape of the dose curve; as a rule, active = well fitted cell-killing curve with a large enough effect; inconclusive = small, poorly fitted or top-dose-only effect, or effect the other way; inactive = flat fitted curve, though single readings scatter. Where the call is inconclusive, the potency comes from a doubtful curve fit.

Assay: qHTS assay for MDR1-selective chemotherapeutics: Primary screen using the drug-selected MDR subline cells KB-V1; also: nearly all actives have a fitted effect of over 60% in size
Settings: KB-V1 MDR cells viability, CellTiter-Glo, 72 h; activity change, negative = cytotoxicity: at 46.1 µM (top of the series)
Procedure, shortened: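 Following 72 h at 37 degrees C with compound, KB-V1 cell viability was read by CellTiter-Glo luminescence, medium being phenol-red-free DMEM plus 10% FBS; concentration-response parameters came from normalized, curve-fitted qHTS data.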
% is scaled to controls: 0 for no effect and ±100 for the full control effect; potency is read from the fitted curve at half-maximal effect.

| Compound | Potency | activity change, negative = cytotoxicity |
| --- | --- | --- |
| C[C@H]1CN([C@@H](C)CO)C(=O)CCCn2nncc2CO[C@H]1CN(C)S(=O)(=O)c1ccc2c(c1)OCCCO2 | inconclusive: 18.4 µM [rising, single point] |  |
| CCC1S/C(=N/N=C/c2ccco2)N(Cc2ccc(F)cc2)C1=O (stereo not drawn) | inconclusive: 29.1 µM [cytotoxic, single point] |  |
| O=C(COC(=O)/C=C/c1cccc(Cl)c1)Nc1cccc(S(=O)(=O)NC2=NCCC2)c1 | inactive |  |
| CCOc1ccc2c(c1)c1nnc(SCC(=O)N3CCC(C)CC3)nc1n2C | inconclusive: 23.1 µM [cytotoxic, partial curve, poor fit] |  |
| O=C(NCc1cccnc1)C(=O)c1c[nH]c2ccccc12 | inconclusive: 29.1 µM [cytotoxic, single point] |  |
| Cc1cccc(-c2nc(SCc3cc(=O)c4c(C)cc(C)cc4[nH]3)n[nH]2)c1 | inactive |  |
| Cc1c(C(=O)N/N=C/c2ccccc2)[nH]c2c([N+](=O)[O-])cccc12 | inconclusive: 2.31 µM [cytotoxic, partial curve] |  |
| Cc1nn(Cc2ccccc2)c(Cl)c1C(=O)NCCc1ccccc1 | inactive |  |
| C[C@H](O)[C@@H]1CN2CCc3c([nH]c4ccc(-c5ccc6c(c5)OCO6)cc34)[C@@H]2C[C@@H]1N(C)C(=O)NC1CCCCC1 | inconclusive: 2.06 µM [cytotoxic, full curve, poor fit] |  |
| Clc1ccc(C2=Nn3c(nnc3-c3n[nH]c4c3CCC4)SC2)cc1Cl | active: 4.61 µM |  |
| O=C(CN1CCOCC1)Nc1ccc(Oc2ccc(NC(=O)CN3CCOCC3)cc2)cc1 | inconclusive: 29.1 µM [cytotoxic, single point] |  |
| CCOC(=O)c1c(-c2ccccc2)csc1NC(=O)CCN1CCOCC1 | inconclusive: 14.6 µM [cytotoxic, partial curve] |  |
| CSCc1ccc(C(=O)NCC(c2cccs2)N2CCOCC2)cc1 (stereo not drawn) | inconclusive: 20.6 µM [cytotoxic, single point] |  |
| c1ccc2[nH]c(-c3nc4ccccc4[nH]3)nc2c1 | inconclusive: 9.2 µM [cytotoxic, partial curve, poor fit] |  |
| Cc1ccc(N=c2oc3cc(O)ccc3cc2C(N)=O)cc1 | inactive |  |
| CC(C)Cc1ccc(/C=C/C(=O)N2CCOCC2)cc1 | inconclusive: 20.6 µM [cytotoxic, partial curve, poor fit] |  |
| Cc1ccc(S(=O)(=O)NCc2ccc(C(=O)N3CCN(c4ccccc4)CC3)cc2)cc1 | inactive |  |
| c1ccc(CSC2=NNC(c3ccccn3)S2)cc1 (stereo not drawn) | inconclusive: 23.1 µM [cytotoxic, single point] |  |
| COC(=O)C1=C(C)N(CCCCCC(=O)O)C(=O)NC1c1ccccc1 (stereo not drawn) | inconclusive: 25.9 µM [rising, partial curve, poor fit] |  |
| Cc1ccc(Cl)cc1-n1ncc2c(NCCc3ccccc3)ncnc21 | inactive |  |
| CCN(CC)S(=O)(=O)c1cccc(C(=O)N/N=C/c2ccc(N3CCOCC3)cc2)c1 | inconclusive: 20.6 µM [rising, single point] |  |
| Cc1ccc(CNC(=O)CSc2nc3ccccc3nc2Cc2ccc(C)cc2)cc1 | inactive |  |
| CCN1CCN(c2nc(-c3cccs3)nc3ccccc23)CC1 | inconclusive: 9.2 µM [cytotoxic, partial curve, poor fit] |  |

| Compound | Potency | activity change, negative = cytotoxicity |
| --- | --- | --- |
| CCN1CCN(Cc2ccc(NC(=O)c3ccc(C)c(NC(=O)c4c[nH]c5cc(C(F)(F)F)ccc5c4=O)c3)cc2C(F)(F)F)CC1 | inconclusive: 18.4 µM [cytotoxic, single point] and inconclusive: 29.1 µM [cytotoxic, single point] |  |
| Cc1cccc(C)c1NC(=O)CN(C)C(=O)c1ccc2c(=O)n3c(nc2c1)CCC3 | inactive |  |
| Cc1cc(NC(=O)c2ccc([N+](=O)[O-])cc2)no1 | inconclusive: 32.6 µM [rising, single point] |  |
| COc1ccc(CC(=O)NNC(=O)CN(C)S(=O)(=O)c2ccc(Cl)cc2)cc1OC | inactive |  |
| O=C(N[C@@H](Cc1ccccc1)C(=O)N1CCC2(CC1)NCCc1[nH]cnc12)c1cccc(Br)c1 | inconclusive: 29.1 µM [rising, single point] |  |
| COc1ccc(CNC(=O)[C@@H]2CC=C[C@@H]3CCN(C4CCCCC4)C(=O)[C@@H]32)cc1 | inconclusive: 9.2 µM [cytotoxic, partial curve] |  |
| Cc1ccccc1NC1=NC2(CCCC2)N=C(N)N1 | inconclusive: 29.1 µM [rising, single point] |  |
| O=C(c1ccc(Cl)c(S(=O)(=O)N2CCCC2)c1)N1CCN(c2ccccc2F)CC1 | inactive |  |
| CCC1CCC2(C1)N=C(Nc1nc3ccccc3o1)NC1=C2C(=O)CCC1 (stereo not drawn) | inconclusive: 29.1 µM [cytotoxic, single point] |  |
| Cc1c(C(=O)c2ccc(Cl)c(Cl)c2)cnc2cc3c(cc12)OCO3 | inconclusive: 29.1 µM [cytotoxic, single point] |  |
| Cc1cccc(-c2nc3c(cnn3-c3ccccc3)c(=O)n2-c2ccc(Cl)cc2)c1 | inactive |  |
| Cc1ccc(-c2cc(C(=O)Nc3ccncc3)c3ccccc3n2)cc1 | inconclusive: 7.31 µM [cytotoxic, partial curve] |  |
| Cc1ccccc1C(=O)N(C)[C@H]1C[C@H]2c3[nH]c4ccccc4c3CCN2C(=O)[C@H]1[C@H](C)O | inconclusive: 11.6 µM [rising, partial curve] |  |
| O=C(Nc1ccc(NC(=O)c2ccco2)cc1)c1ccc2c(c1)OCO2 | inactive |  |
| COc1cc(C2C(C#N)=C(N)N(c3ccc(F)cc3)C3=C2S(=O)(=O)CC3)ccc1O (stereo not drawn) | inactive |  |
| COc1ccc(CCn2c(-c3ccco3)nc3nc4ccccc4nc32)cc1 | inconclusive: 25.9 µM [cytotoxic, single point] |  |
| CCOc1cc(-c2cc(-c3ccc(C)cc3)nc(N)c2C#N)ccc1O | active: 8.2 µM |  |
| Cc1ccc(-n2ncc3c2CC(C)(C)CC3NC(=O)c2ccncc2)cc1 (stereo not drawn) | inconclusive: 5.8 µM [cytotoxic, partial curve] |  |
| C=CCOc1c(Br)cc(/C=N/NC(N)=O)cc1OC | inconclusive: 0.58 µM [cytotoxic, full curve, poor fit] |  |
| CCCOc1ccc(CNC(=S)N/N=C/c2ccc([N+](=O)[O-])cc2)cc1 | inconclusive: 7.31 µM [cytotoxic, partial curve] |  |
| Cc1cc2cc(C(c3nnnn3Cc3ccco3)N3CCc4ccccc4C3)c(=O)[nH]c2cc1C (stereo not drawn) | inconclusive: 29.1 µM [cytotoxic, single point] |  |
| CN1CCN(CC(O)COc2ccc(C34CC5CC(CC(C5)C3)C4)cc2)CC1 (stereo not drawn) | inconclusive: 29.1 µM [cytotoxic, single point] |  |
| COc1ccc(NS(=O)(=O)c2ccc(S(=O)(=O)N3CCCC3)cc2)cc1 | inconclusive: 20.6 µM [cytotoxic, single point] |  |

| Compound | Potency | activity change, negative = cytotoxicity |
| --- | --- | --- |
| Cc1ccccc1Sc1c(C#N)c(-c2ccccc2)nn1C | inactive |  |
| O=C(N1CCCCCC1)N1CCN(S(=O)(=O)c2cccc([N+](=O)[O-])c2)CC1 | inconclusive: 18.4 µM [cytotoxic, partial curve, poor fit] |  |
| CC1=CC(C)(C)n2c(O)c(N=N)c3c(C)ccc1c32 | inactive |  |
| Cc1ccc2cc(C=O)c(N(C)C)nc2c1 | inactive |  |
| Cn1cnc(S(=O)(=O)Nc2ccc(OC(F)(F)F)cc2)c1 | inconclusive: 25.9 µM [rising, single point] |  |
| Nc1nc(N)c2c(ccc3c2ccn3Cc2cccc([N+](=O)[O-])c2)n1 | active: 1.84 µM |  |
| CCOC(=O)C1CCCN(C(=O)c2cc3c(C)nc4ccccc4c3o2)C1 (stereo not drawn) | active: 13 µM |  |
| CCOC(=O)/C(N=Nc1c(C)n(C)n(-c2ccccc2)c1=O)=C(/O)c1ccccc1 | inconclusive: 23.1 µM [cytotoxic, single point] |  |
| O=C(Nc1ccc(F)cc1F)c1ccc2c(=O)n3c(nc2c1)CCC3 | inconclusive: 18.4 µM [cytotoxic, single point] |  |
| Nc1ccc2oc(-c3cc(Br)ccc3Cl)nc2c1 | inconclusive: 16.4 µM [cytotoxic, single point] |  |
| O=C(Nc1cccc(S(=O)(=O)N2CCOCC2)c1)c1cc(S(=O)(=O)N2CCOCC2)c(Cl)cc1Cl | inactive |  |
| CC1CN(CC(=O)Nc2ccc(Br)cn2)CC(C)O1 (stereo not drawn) |  | inconclusive: -16.8% |
| Cc1cc(C)c2nc(-c3ccccn3)cc(C(=O)Nc3ccc(S(=O)(=O)Nc4cc(C)on4)cc3)c2c1 | inconclusive: 23.1 µM [cytotoxic, single point] |  |
| CCC(C)NC(=O)CN(c1ccc(OC)cc1)S(=O)(=O)c1ccccc1 (stereo not drawn) | inconclusive: 13 µM [cytotoxic, partial curve, poor fit] |  |
| CCCOc1ccc(C(=O)NC(=S)Nc2nc(C)c(C(=O)N(C)C)s2)cc1 | active: 20.6 µM |  |
| COC1=CC(=O)C=C(OC)C1=O | inactive |  |
| CCOCCCNC(=O)c1ccc(Br)cc1 | inconclusive: 29.1 µM [rising, single point] |  |
| COc1ccc(NS(=O)(=O)c2cc(NC(=O)c3ccco3)ccc2N2CCCCC2)cc1 | inactive |  |
| CC1=CC(=O)CC2C1(C)CCC(C)C2(C)CCC(C)CC(=O)O (stereo not drawn) | inconclusive: 2.31 µM [rising, single point] |  |
| Cc1nn2cc(-c3ccc(OC(C)C)cc3)nc2s1 | inactive |  |
| CN(C)/C=C/C(=O)c1ccc(Br)cc1 | inactive |  |
| CCn1ccnc1CN(C)Cc1cn[nH]c1-c1ccc(OC)c(F)c1 | inconclusive: 9.2 µM [cytotoxic, partial curve, poor fit] |  |
